Tested on: HeLa cells
Assay: Confocal fluorescence microscopy co-localization with organelle probes
Format: cell-based, human
Details: 1b 5 μM
Protocol: HeLa cells (2×10^5 cells) were seeded in a one chamber slide (Nalgene; Nunc) with culture medium (2 mL per well) and incubated at 37° C. in a humidified atmosphere of 5% CO2/95% air for 24 h. After treating with 1b (5 μM) for 1 h, ER-tracker™ red (1 μM), Mitotracker® deep red (50 nM) or Lysotracker® deep red (50 nM) were incubated with cells for 10 min, and then the cells were washed with PBS twice. Confocal fluorescence images were captured using a Carl Zeiss LSM510 Meta confocal microscope with the use of 488 and 543 nm/633 nm lasers for the excitation of complex 1b and red/deep red tracker respectively, under a Plan-Apochromat 63×1.40NA oil-immersion objective.

For `CCCCN1C=CN(CCCC)[CH]1[Pt]12[n]3c(c4ccccc4c3=Nc3cccc[n+]31)=Nc1cccc[n+]12` [Complex 1b], the “Pearson's correlation coefficient for co-localization with Lysotracker” value was 0.55 and the “Pearson's correlation coefficient for co-localization with Mitotracker” value was 0.45.
